{"source": "patent US20180169082A1", "about": "(priority 2014, published 2018)", "key": {"[1]": {"experiment": "Angle of repose / powder flow of granules", "assay_type": "physicochemical", "text": "The angle of repose may be used to characterize the flow properties of solids. Angle of repose is a characteristic related to interparticulate friction or resistance to movement between particles. The angle of repose is the constant, three-dimensional angle (relative to the horizontal base) assumed by a cone-like pile of material formed by any of several different methods. A variety of angle of repose test methods arc described in the literatue. The most common methods for determining the static angle of repose can be classified on the basis of the following two important experimental variables: (1) The height of the “funnel” through which the powder passes may be fixed relative to the base, or the height may be varied as the pile forms and (2) the base upon which the pile forms may be of fixed diameter or the diameter of the powder cone may be allowed to vary as the pile forms.\nA slightly larger batch (Batch 1086-140-10) was made and granules were encapsulated in size 4 capsule shells. Weight variation of capsules of this batch was found within acceptable range of ±10%."}, "[2]": {"experiment": "Bulk and tap density of granules or powder", "assay_type": "physicochemical"}}, "note": "Structures can show the parent of a compound that is named as a salt.", "data": [{"compound": "COc1cc2c(cc1OC)C(=O)C(CC1CCN(Cc3ccccc3)CC1)C2", "note": "(centres unmarked) [Donepezil Drug Substance, donepezil hydrochloride]", "values": [{"measurement": "Angle of repose (requires tapping)", "setting": "[1]", "value": ">50.2"}, {"measurement": "Bulk density", "setting": "[2]", "value": 0.14, "unit": "g/mL"}, {"measurement": "Compressibility (t-b)/t", "setting": "[2]", "value": 70}, {"measurement": "Hausener ratio (Tap/Bulk)", "setting": "[2]", "value": 3.29}, {"measurement": "Tap density", "setting": "[2]", "value": 0.46, "unit": "g/mL"}]}]}
